Data as given in patent publication US8901175B2 (priority 2008, dated 2014).
Structures can show the parent of a compound that is named as a salt.

Experiments:
Conditions in all cases: 30, 20, 15, 10 μM methadone, 24 h and 48 h
[1] = system: HL-60 cells
[2] = system: peripheral blood lymphocytes (PBLs)
[3] = system: CEM cells

`CCC(=O)C(CC(C)N(C)C)(c1ccccc1)c1ccccc1` (racemic) [methadone, D, L-methadone hydrochloride] was tested, and the inhibition of growth [1] was “strong inhibition of growth”, the “killing of non-leukaemic PBLs” value [2] was “could not kill PBLs” and the inhibition of growth [3] was “strong inhibition of growth”.
